From PubChem BioAssay AID2685 (National Center for Advancing Translational Sciences (NCATS), 2010)
Among all 320,000 compounds or so, about 2,100 (0.66%) were called active. The inconclusive results got no clear call from the source; some entries with a clear call stand among them for comparison. Calls come from the whole dose curve; as a rule, active = well fitted inhibition curve with a large enough effect in the signal ratio, with a control signal flat (not every such curve was filed as active); inconclusive = small, poorly fitted or top-dose-only effect, or effect the other way, or a change in a side signal; inactive = flat fitted curve, though single readings scatter; the % refers to the signal ratio. A potency beside an inconclusive call is a rough fit, not a confirmed value.

Test: qHTS Assay for Lipid Storage Modulators in Drosophila S3 Cells
Conditions: BODIPY lipid droplet fluorescence, 18-24 h, cells fed with added oleic acid; lipid storage change, negative = inhibition: at 46.1 µM (top of the series) unless noted
Procedure, shortened: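 Drosophila S3 cells loaded with oleic acid (400 uM, as added) and compounds at several concentrations; lipid droplets imaged by 488-nm laser-scanning cytometry, 500–530 nm intensity and object ratio to cell channel. Percent activity normalized to 20 uM Triacsin C.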
% is set by controls: 0 for no effect and ±100 for the full control effect; potency is the fitted concentration of half-maximal effect.

Q: With C#CCOc1ccccc1C(N)=O as the molecule, how does the lipid storage change, negative = inhibition read?
A: The lipid storage change, negative = inhibition was inconclusive: -3.36%.

Q: For COc1ccc2oc(C(=O)OCC(=O)Nc3cc(S(=O)(=O)N4CCOCC4)ccc3OC)c(C)c2c1, which lipid storage change, negative = inhibition is on record?
A: The lipid storage change, negative = inhibition was “inconclusive”.

Q: For COc1cc2c(cc1OC)C(c1ccc([N+](=O)[O-])cc1)NC(=O)C2 (centres undefined), which Potency is on record?
A: Its Potency is active: 6.51 µM.

Q: With CCOc1ccccc1C(=O)OCC(=O)NCC1CCCO1 (centres undefined) as the molecule, how does the lipid storage change, negative = inhibition read?
A: Its lipid storage change, negative = inhibition is inconclusive: 37%.

Q: With Cc1cc(C)cc(NC(=O)COc2coc(CN3CCc4ccccc43)cc2=O)c1 as the molecule, how does the lipid storage change, negative = inhibition read?
A: The lipid storage change, negative = inhibition was inconclusive: -58.7% [at 0.0737 µM].

Q: Which lipid storage change, negative = inhibition does the source give for CCCCN1C(=O)C2C(C(=O)Nc3cccc(OC)c3)C3C=CC2(O3)C1C(=O)NC1CCCCC1C (centres undefined) here?
A: Its lipid storage change, negative = inhibition is inconclusive: -7.08%.

Q: Which “lipid storage change, negative = inhibition” value does the source give for c1ccc2cc(OCc3nc4ccccc4[nH]3)ccc2c1 here?
A: The value was inactive: -7.47%.

Q: Which lipid storage change, negative = inhibition does the source give for Cc1ccc(CNC(=O)C(=O)c2cn(CC(=O)N3CCOCC3)c3ccccc23)cc1 here?
A: Its lipid storage change, negative = inhibition is inconclusive: 18.8%.

Q: Which lipid storage change, negative = inhibition does the source give for CCOC(=O)c1sc(N)c(C(=O)OCC)c1C here?
A: The lipid storage change, negative = inhibition was inconclusive: 13.3%.

Q: For COCCN1CN(S(=O)(=O)c2cccc(Cl)c2)c2nc3ccccc3nc21, which Potency is on record?
A: The Potency was inconclusive: 6.51 µM [activator, single point].

Q: For CC1=C(OC(=O)C(C)(C)C)C(C)(C)C(c2ccccc2)OC1=O (centres undefined), which lipid storage change, negative = inhibition is on record?
A: The lipid storage change, negative = inhibition was inconclusive: -3.25%.

Q: With O=C(NNC(=O)c1ccc2ncccc2c1)c1ccc(Cl)cc1 as the molecule, how does the lipid storage change, negative = inhibition read?
A: The lipid storage change, negative = inhibition was inconclusive: 62.6%.

Q: For COC(=O)C1C(O)=C(C=NC2CCCCC2)C(=O)CC1(C)C (centres undefined), which Potency is on record?
A: The Potency was inconclusive: 1.03 µM [falling, single point].

Q: For Cc1ccc(S(=O)(=O)c2cc(C#N)c(=O)[nH]c2N)cc1, which lipid storage change, negative = inhibition is on record?
A: Its lipid storage change, negative = inhibition is inconclusive: 15.1%.

Q: Which lipid storage change, negative = inhibition does the source give for COc1cccc(N2CCN(CC(=O)NC(=O)NCc3ccco3)CC2)c1 here?
A: The lipid storage change, negative = inhibition was inconclusive: 1.55%.

Q: For CC(=O)Nc1ccc(S(=O)(=O)NC2CC(=O)N(c3ccc(C)cc3)C2)cc1 (centres undefined), which lipid storage change, negative = inhibition is on record?
A: The lipid storage change, negative = inhibition was inconclusive: 16.4%.

Q: Which lipid storage change, negative = inhibition does the source give for C/C(=N\NC(=S)Nc1ccc(C)cc1)c1cc2ccccc2o1 here?
A: The lipid storage change, negative = inhibition was inconclusive: 10.2%.

Q: Which lipid storage change, negative = inhibition does the source give for CCCCn1c(=O)c(CC(C)=O)nc2ccccc21 here?
A: The lipid storage change, negative = inhibition was inconclusive: -2.37%.

Q: Which lipid storage change, negative = inhibition does the source give for O=C(NCCN1CCCCCC1)C1CCCN1S(=O)(=O)c1cccc2nsnc12 (centres undefined) here?
A: Its lipid storage change, negative = inhibition is inconclusive: -1.12%.

Q: With Cc1c(CCOC(=O)c2cc([N+](=O)[O-])cc([N+](=O)[O-])c2)sc[n+]1CCCCS(=O)(=O)[O-] as the molecule, how does the lipid storage change, negative = inhibition read?
A: The lipid storage change, negative = inhibition was inconclusive: 7.9%.

Q: With Cc1ccc(C)c(NC(=O)c2cc3c([nH]c4ccccc43)c(C)n2)c1 as the molecule, how does the lipid storage change, negative = inhibition read?
A: The lipid storage change, negative = inhibition was inconclusive: -21.7%.

Q: Which lipid storage change, negative = inhibition does the source give for O=C(NCc1ccco1)/C(=C\c1ccccc1)NC(=O)c1ccccc1 here?
A: Its lipid storage change, negative = inhibition is inconclusive: -56.3%.

Q: For CCOC(=O)c1cc(CNC(=O)c2c(C)oc3c2CCCC3)c(C)o1, which lipid storage change, negative = inhibition is on record?
A: The lipid storage change, negative = inhibition was inconclusive: -4.44%.

Q: Which Potency does the source give for COc1cccc2c1nc(C)c1cc(C)oc12 here?
A: Its Potency is inconclusive: 8.2 µM [activator, partial curve].

Q: Which lipid storage change, negative = inhibition does the source give for Cc1cc(C(F)(F)F)nn2cnnc12 here?
A: Its lipid storage change, negative = inhibition is inconclusive: 4.49%.

Q: With C1CCc2nnc(-c3nnc4n3CCCCC4)n2CC1 as the molecule, how does the lipid storage change, negative = inhibition read?
A: The lipid storage change, negative = inhibition was inconclusive: -41.5%.

Q: Which Potency does the source give for O=C(Nc1ccc2c(c1)OCO2)c1n[nH]c(=O)c2ccccc12 here?
A: Its Potency is inconclusive: 3.66 µM [activator, single point].

Q: With CC(C)N(C(=O)COC(=O)[C@H](C)NC(=O)c1ccco1)c1ccccc1 as the molecule, how does the lipid storage change, negative = inhibition read?
A: The lipid storage change, negative = inhibition was inconclusive: -9.96%.

Q: Which lipid storage change, negative = inhibition does the source give for COC(C[C@H](O)C[C@H](O)[C@H](C)OCc1ccccc1)OC here?
A: Its lipid storage change, negative = inhibition is inconclusive: -58.7%.

Q: Which lipid storage change, negative = inhibition does the source give for O=C(Nc1ccc2c(c1)OCO2)c1cc(Cl)ccn1 here?
A: The lipid storage change, negative = inhibition was inconclusive: -1.87%.

Q: Which lipid storage change, negative = inhibition does the source give for CC(C)OC(=O)C(CC(=O)O)NCc1ccccc1 (centres undefined) here?
A: Its lipid storage change, negative = inhibition is inconclusive: 1.03%.

Q: With Cc1c(C(=O)O)cccc1-n1c(C)cc(/C=C(/C#N)C(=O)NCc2ccccc2)c1C as the molecule, how does the lipid storage change, negative = inhibition read?
A: The lipid storage change, negative = inhibition was inconclusive: 59.2%.

Q: With CCOc1ccc(-n2nnnc2-c2nc3ccccc3s2)cc1 as the molecule, how does the lipid storage change, negative = inhibition read?
A: The lipid storage change, negative = inhibition was inconclusive: 6.02%.

Q: Which lipid storage change, negative = inhibition does the source give for CC(C)(C)NC(=O)NC(=O)CN1CCCCC1 here?
A: Its lipid storage change, negative = inhibition is inconclusive: -39.2%.

Q: With COc1ccc2[nH]c(=O)c(CN(CCCN(C)C)C(=O)Nc3ccccc3)cc2c1 as the molecule, how does the lipid storage change, negative = inhibition read?
A: Its lipid storage change, negative = inhibition is inconclusive: -3.44%.

Q: Which lipid storage change, negative = inhibition does the source give for COc1ccc(NC(=O)CSc2nc(O)cc(=O)n2-c2ccc(OC)cc2)cc1 here?
A: The lipid storage change, negative = inhibition was inconclusive: 46.9%.

Q: For COc1ccc(CCN(C(=O)c2ccc(F)cc2)C2=CC3CCC(C2)N3C)cc1OC (centres undefined), which lipid storage change, negative = inhibition is on record?
A: Its lipid storage change, negative = inhibition is inconclusive: 6.94%.

Q: With S=C(NC1CCCCC1)NN(c1ccccc1)c1ccccc1 as the molecule, how does the lipid storage change, negative = inhibition read?
A: The lipid storage change, negative = inhibition was inconclusive: 39.9% [activator].

Q: Which Potency does the source give for CS(=O)(=O)N1CCC(C(=O)N2CCC(Cc3ccccc3)CC2)CC1 here?
A: The Potency was inconclusive: 20.6 µM [activator, single point].
